Publication PMC5562840, “TRPM6 and TRPM7 differentially contribute to the relief of heteromeric TRPM6/7 channels from inhibition by cytosolic Mg^2+ and Mg·ATP” (Scientific Reports, 2017)
Results are given in words; binding and its absence hold for the method and conditions named. In cells and extracts the contact can be indirect. Some binding calls cover weakened binding; strength is not graded here. Where a sequence is shown, tags or fusion partners need not be part of it.

Protein sequences, listed by entry. Tags and fused reporters are not part of them.
UniProt Q923J1: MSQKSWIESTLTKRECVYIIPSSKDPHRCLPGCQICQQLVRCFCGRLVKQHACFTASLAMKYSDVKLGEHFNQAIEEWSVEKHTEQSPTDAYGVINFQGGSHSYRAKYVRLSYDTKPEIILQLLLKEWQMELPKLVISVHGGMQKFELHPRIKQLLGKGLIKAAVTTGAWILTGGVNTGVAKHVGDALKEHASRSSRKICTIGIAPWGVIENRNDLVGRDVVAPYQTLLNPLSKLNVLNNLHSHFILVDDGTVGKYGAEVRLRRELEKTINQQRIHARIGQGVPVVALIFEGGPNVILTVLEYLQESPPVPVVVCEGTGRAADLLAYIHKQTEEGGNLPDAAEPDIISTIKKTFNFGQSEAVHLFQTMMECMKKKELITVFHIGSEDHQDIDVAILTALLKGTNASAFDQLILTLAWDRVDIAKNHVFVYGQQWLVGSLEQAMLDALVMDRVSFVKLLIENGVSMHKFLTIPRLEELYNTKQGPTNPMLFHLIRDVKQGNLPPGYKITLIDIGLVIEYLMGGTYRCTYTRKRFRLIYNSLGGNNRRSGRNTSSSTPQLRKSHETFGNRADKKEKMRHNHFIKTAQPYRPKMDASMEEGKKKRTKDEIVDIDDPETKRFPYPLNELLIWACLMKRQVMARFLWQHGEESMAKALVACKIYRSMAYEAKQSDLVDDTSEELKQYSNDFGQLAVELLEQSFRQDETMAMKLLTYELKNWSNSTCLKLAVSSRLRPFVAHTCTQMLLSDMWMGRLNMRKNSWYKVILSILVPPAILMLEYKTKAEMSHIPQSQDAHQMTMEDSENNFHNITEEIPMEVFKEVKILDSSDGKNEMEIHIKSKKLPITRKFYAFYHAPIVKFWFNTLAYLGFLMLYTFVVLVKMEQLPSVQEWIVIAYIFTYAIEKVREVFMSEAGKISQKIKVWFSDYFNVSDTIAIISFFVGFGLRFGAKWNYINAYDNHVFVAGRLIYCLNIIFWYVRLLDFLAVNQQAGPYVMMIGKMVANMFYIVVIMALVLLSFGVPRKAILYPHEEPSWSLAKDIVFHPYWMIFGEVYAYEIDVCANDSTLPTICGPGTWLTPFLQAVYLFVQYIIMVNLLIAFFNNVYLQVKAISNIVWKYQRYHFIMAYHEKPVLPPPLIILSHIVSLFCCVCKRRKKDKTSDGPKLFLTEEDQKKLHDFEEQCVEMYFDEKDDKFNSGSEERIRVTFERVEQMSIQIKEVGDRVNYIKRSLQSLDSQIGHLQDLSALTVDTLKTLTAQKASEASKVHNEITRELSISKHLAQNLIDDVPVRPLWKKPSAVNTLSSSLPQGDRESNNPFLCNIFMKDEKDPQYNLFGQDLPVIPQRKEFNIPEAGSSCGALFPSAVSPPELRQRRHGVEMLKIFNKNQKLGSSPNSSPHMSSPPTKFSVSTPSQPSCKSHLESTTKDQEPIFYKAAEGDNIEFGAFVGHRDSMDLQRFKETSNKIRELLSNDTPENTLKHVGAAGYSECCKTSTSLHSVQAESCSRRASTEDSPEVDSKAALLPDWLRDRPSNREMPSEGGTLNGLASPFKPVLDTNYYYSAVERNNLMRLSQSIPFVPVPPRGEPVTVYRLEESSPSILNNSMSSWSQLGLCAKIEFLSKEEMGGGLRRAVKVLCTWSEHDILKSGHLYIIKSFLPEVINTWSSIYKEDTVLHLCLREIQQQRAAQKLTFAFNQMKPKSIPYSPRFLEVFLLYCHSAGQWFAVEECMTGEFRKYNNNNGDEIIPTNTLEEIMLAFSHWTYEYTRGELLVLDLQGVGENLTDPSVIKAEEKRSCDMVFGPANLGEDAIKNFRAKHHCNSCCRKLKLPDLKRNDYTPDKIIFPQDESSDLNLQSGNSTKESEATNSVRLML
UniProt Q8CIR4: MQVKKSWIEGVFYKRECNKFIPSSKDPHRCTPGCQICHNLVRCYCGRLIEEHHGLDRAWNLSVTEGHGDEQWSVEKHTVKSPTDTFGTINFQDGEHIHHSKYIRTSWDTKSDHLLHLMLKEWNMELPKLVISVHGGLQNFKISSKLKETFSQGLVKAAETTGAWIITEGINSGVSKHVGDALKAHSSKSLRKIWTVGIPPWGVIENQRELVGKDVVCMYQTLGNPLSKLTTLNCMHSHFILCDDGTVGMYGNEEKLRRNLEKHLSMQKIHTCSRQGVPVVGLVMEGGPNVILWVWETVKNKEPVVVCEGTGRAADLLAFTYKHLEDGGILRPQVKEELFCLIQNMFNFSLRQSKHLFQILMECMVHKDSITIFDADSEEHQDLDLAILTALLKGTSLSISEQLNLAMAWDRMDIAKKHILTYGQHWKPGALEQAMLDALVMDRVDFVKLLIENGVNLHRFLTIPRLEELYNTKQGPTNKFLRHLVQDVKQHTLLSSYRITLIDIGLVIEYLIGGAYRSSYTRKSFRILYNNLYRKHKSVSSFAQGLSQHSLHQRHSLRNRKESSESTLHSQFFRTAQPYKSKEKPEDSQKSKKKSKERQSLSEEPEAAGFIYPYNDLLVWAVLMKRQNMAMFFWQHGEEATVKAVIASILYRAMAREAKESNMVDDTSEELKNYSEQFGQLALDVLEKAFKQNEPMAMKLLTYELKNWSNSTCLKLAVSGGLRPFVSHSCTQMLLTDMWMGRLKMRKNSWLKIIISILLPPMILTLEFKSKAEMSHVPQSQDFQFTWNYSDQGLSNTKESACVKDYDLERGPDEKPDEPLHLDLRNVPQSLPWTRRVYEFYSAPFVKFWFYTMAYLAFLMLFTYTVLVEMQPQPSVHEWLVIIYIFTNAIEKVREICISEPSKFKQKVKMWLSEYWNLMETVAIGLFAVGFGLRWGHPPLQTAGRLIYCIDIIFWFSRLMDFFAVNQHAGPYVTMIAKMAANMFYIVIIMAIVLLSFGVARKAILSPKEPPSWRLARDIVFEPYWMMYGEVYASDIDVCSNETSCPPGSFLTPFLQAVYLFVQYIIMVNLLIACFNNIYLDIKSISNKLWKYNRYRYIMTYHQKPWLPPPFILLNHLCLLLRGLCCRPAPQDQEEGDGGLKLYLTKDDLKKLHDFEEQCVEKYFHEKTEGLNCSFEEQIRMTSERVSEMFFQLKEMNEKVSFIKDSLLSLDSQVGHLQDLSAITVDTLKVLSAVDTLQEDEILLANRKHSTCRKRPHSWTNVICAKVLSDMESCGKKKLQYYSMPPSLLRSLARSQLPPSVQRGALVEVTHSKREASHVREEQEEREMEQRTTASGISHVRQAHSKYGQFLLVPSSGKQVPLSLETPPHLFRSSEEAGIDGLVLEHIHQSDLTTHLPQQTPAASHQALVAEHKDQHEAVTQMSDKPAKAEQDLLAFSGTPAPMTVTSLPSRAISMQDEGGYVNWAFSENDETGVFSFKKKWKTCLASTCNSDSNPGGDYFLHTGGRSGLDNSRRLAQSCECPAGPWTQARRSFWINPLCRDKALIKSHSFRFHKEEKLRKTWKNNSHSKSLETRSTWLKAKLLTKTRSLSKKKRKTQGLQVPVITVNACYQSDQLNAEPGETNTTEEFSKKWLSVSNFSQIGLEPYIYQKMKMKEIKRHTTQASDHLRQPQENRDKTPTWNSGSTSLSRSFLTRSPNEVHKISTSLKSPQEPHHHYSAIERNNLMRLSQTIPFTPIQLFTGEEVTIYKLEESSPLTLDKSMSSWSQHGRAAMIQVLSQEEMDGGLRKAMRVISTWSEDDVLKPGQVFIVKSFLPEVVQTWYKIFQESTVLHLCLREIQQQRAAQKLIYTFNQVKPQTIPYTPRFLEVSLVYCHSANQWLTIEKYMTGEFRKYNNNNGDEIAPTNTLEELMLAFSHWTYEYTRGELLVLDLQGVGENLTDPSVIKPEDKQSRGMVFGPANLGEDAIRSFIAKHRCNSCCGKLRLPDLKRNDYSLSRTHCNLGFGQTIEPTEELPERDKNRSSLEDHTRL

Molecular target: mouse TRPM7 (mTRPM7) fused to a myc tag (mTRPM7-myc) (mouse) (UniProt Q923J1)
Experiment: co-IP; HEK 293 cells co-transfected with mTRPM7-myc and a YFP-tagged channel; lysis in PBS with 1% Triton X-100 and protease inhibitors; anti-myc 9E10 antibody on Protein A/G magnetic beads, overnight at 4 °C; blots with anti-GFP (cross-reacting with YFP) or anti-myc

Molecule | binding
mouse TRPM6 with a C-terminal yellow fluorescent protein tag (mTRPM6-YFP) (from UniProt Q8CIR4 1-2028) | binds
mTRPM5 containing a YFP tag (mTRPM5-YFP) (protein, UniProt Q9JJH7 1-1158) MQTTQSSCPGSPPDTEDGWEPILCRGEINFGGSGKKRGKFVKVPSSVAPSVLFELLLTEWHLPAPNLVVSLVGEERPLAMKSWLRDVLRKGLVKAAQSTGAWILTSALHVGLARHVGQAVRDHSLASTSTKIRVVAIGMASLDRILHRQLLDGVHQKEDTPIHYPADEGNIQGPLCPLDSNLSHFILVESGALGSGNDGLTELQLSLEKHISQQRTGYGGTSCIQIPVLCLLVNGDPNTLERISRAVEQAAPWLILAGSGGIADVLAALVSQPHLLVPQVAEKQFREKFPSECFSWEAIVHWTELLQNIAAHPHLLTVYDFEQEGSEDLDTVILKALVKACKSHSQEAQDYLDELKLAVAWDRVDIAKSEIFNGDVEWKSCDLEEVMTDALVSNKPDFVRLFVDSGADMAEFLTYGRLQQLYHSVSPKSLLFELLQRKHEEGRLTLAGLGAQQARELPIGLPAFSLHEVSRVLKDFLHDACRGFYQDGRRMEERGPPKRPAGQKWLPDLSRKSEDPWRDLFLWAVLQNRYEMATYFWAMGREGVAAALAACKIIKEMSHLEKEAEVARTMREAKYEQLALDLFSECYGNSEDRAFALLVRRNHSWSRTTCLHLATEADAKAFFAHDGVQAFLTKIWWGDMATGTPILRLLGAFTCPALIYTNLISFSEDAPQRMDLEDLQEPDSLDMEKSFLCSRGGQLEKLTEAPRAPGDLGPQAAFLLTRWRKFWGAPVTVFLGNVVMYFAFLFLFTYVLLVDFRPPPQGPSGSEVTLYFWVFTLVLEEIRQGFFTDEDTHLVKKFTLYVEDNWNKCDMVAIFLFIVGVTCRMVPSVFEAGRTVLAIDFMVFTLRLIHIFAIHKQLGPKIIIVERMMKDVFFFLFFLSVWLVAYGVTTQALLHPHDGRLEWIFRRVLYRPYLQIFGQIPLDEIDEARVNCSLHPLLLESSASCPNLYANWLVILLLVTFLLVTNVLLMNLLIAMFSYTFQVVQGNADMFWKFQRYHLIVEYHGRPALAPPFILLSHLSLVLKQVFRKEAQHKRQHLERDLPDPLDQKIITWETVQKENFLSTMEKRRRDSEGEVLRKTAHRVDLIAKYIGGLREQEKRIKCLESQANYCMLLLSSMTDTLAPGGTYSSSQNCGCRSQPASARDREYLESGLPPSDT | no binding
